Data on 24 compounds can be found in the supplement of paper PMC12542422.

Counter-ions that a name gives are not always drawn. ± gives the standard deviation of the averaged measurements. The list shows a part of the results. These are raw signals, not scaled to a control.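 Ribosome-assembly readouts in HeLa cells were imaged via ENP1 staining, with or without export block, or inducible tagged ribosomal protein reporters. Machine learning classified per-cell signal location versus solvent (DMSO) controls. Hits surpassed the DMSO false-positive mean by five standard deviations and were visually confirmed; three biological replicates.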

Assay [1] concerns HeLa K (ENP1 immunofluorescence, +LMB). Briefly: fraction of cells with nucleolar or nucleolar/nucleoplasmic ENP1 signal (MainHitrate); higher = more cells with nucleolar/nuclear readout signal (for ENP1 -LMB: less RNAPI inhibition; for +LMB ENP1 and RP reporters: stronger nuclear/nucleolar retention, i.e. ribosome biogenesis defect). The settings on record: concentration: 1 µM; treatment time: 6 h; ENP1 +LMB; leptomycin B: 20 nM, last 1.5 h.

In assay [2] the test system is HeLa K (ENP1 immunofluorescence, no LMB). The assay is described as above. The settings on record: concentration: 1 µM; treatment time: 6 h; ENP1 -LMB; leptomycin B: none.
For a further assay, the system named is HeLa RPS2-YFP reporter. Briefly: fraction of reporter-positive cells with nuclear (nucleolar or nucleolar/nucleoplasmic) RPS2-YFP (MainHitrate); higher = more cells with nucleolar/nuclear readout signal (for ENP1 -LMB: less RNAPI inhibition; for +LMB ENP1 and RP reporters: stronger nuclear/nucleolar retention, i.e. ribosome biogenesis defect). The conditions noted are these: concentration: 1 µM; treatment time: 6 h.

In another assay the test system is HeLa RPL29-GFP reporter. Briefly: fraction of reporter-positive cells with nuclear (nucleolar or nucleolar/nucleoplasmic) RPL29-GFP (MainHitrate); higher = more cells with nucleolar/nuclear readout signal (for ENP1 -LMB: less RNAPI inhibition; for +LMB ENP1 and RP reporters: stronger nuclear/nucleolar retention, i.e. ribosome biogenesis defect). The settings on record: concentration: 1 µM; treatment time: 6 h.

In the case of `CC(=O)N1CCN(c2ccc(OCC3COC(Cn4ccnc4)(c4ccc(Cl)cc4Cl)O3)cc2)CC1` (stereo unspecified) [Ketoconazole], the results for the fraction in assay [1] and in assay [2] were 0.0862 ± 0.076 and 0.9986 ± 0.0024, respectively. Further, the “fraction of reporter-positive cells with nuclear” value (shortened to “fraction … with nuclear”) came to 0.103 ± 0.076 in the assay on HeLa RPS2-YFP reporter and 0.205 ± 0.091 in the assay on HeLa RPL29-GFP reporter.
In the case of `CN1C(CCl)Nc2cc(Cl)c(S(N)(=O)=O)cc2S1(=O)=O` (stereo unspecified) [Methyclothiazide], the fraction amounted to 0.0824 ± 0.11 in assay [1] and 0.992 ± 0.014 in assay [2]. Also, the “fraction … with nuclear” value in the assay on HeLa RPS2-YFP reporter amounted to 0.108 ± 0.079; with HeLa RPL29-GFP reporter it was 0.218 ± 0.05.
For the compound `CN[C@H]1CC[C@@H](c2ccc(Cl)c(Cl)c2)c2ccccc21` [Sertraline HCl], the fraction was 0.0914 ± 0.13 in assay [1] and 0.986 ± 0.024 in assay [2]. Further, the figures for the “fraction … with nuclear” value in the assay on HeLa RPS2-YFP reporter and with HeLa RPL29-GFP reporter were 0.11 ± 0.1 and 0.225 ± 0.062, respectively.
As for `O=C(O)C[C@H](O)C[C@H](O)/C=C/c1c(C2CC2)nc2ccccc2c1-c1ccc(F)cc1` [Pitavastatin calcium (Livalo)], the values for the fraction in assay [1] and in assay [2] were 0.114 ± 0.14 and 0.9985 ± 0.0025, respectively. The “fraction … with nuclear” value with HeLa RPS2-YFP reporter was determined as 0.115 ± 0.076; in the assay with HeLa RPL29-GFP reporter, 0.215 ± 0.081.
Turning to `CC[C@H]1OC(=O)[C@H](C)[C@@H](O[C@H]2C[C@@](C)(OC)[C@@H](O)[C@H](C)O2)[C@H](C)[C@@H](O[C@@H]2O[C@H](C)C[C@H](N(C)C)[C@H]2O)[C@](C)(O)C[C@@H](C)/C(=N\OCOCCOC)[C@H](C)[C@@H](O)[C@]1(C)O` [Roxithromycin (Roxl-150)], the fraction was 0.0977 ± 0.14 in assay [1] and 0.9963 ± 0.0064 in assay [2]. In addition, the “fraction … with nuclear” value in the assay with HeLa RPS2-YFP reporter came out at 0.12 ± 0.079; in the assay on HeLa RPL29-GFP reporter, 0.181 ± 0.031.
On to `CCCCCCCCCCCCCCCC(=O)O[C@@H]1[C@@H](O)[C@@H](O)[C@@H]([C@H](NC(=O)[C@@H]2C[C@@H](CCC)CN2C)[C@H](C)Cl)O[C@@H]1SC` [Clindamycin palmitate HCl], for which the fraction in assay [1] was 0.0568 ± 0.069; in assay [2], 0.985 ± 0.027. Further, the “fraction … with nuclear” value came out at 0.0995 ± 0.084 in the assay with HeLa RPS2-YFP reporter and 0.201 ± 0.05 with HeLa RPL29-GFP reporter.
Consider `CN1C2CCCC1CC(NC(=O)c1nn(C)c3ccccc13)C2` (stereo unspecified) [Granisetron HCl], for which the fraction in assay [1] was determined as 0.054 ± 0.049; in assay [2], 0.9985 ± 0.0025. The “fraction … with nuclear” value with HeLa RPS2-YFP reporter turned out to be 0.102 ± 0.059; with HeLa RPL29-GFP reporter, 0.194 ± 0.081.
On to `COc1ccc(-n2nc(C(N)=O)c3c2C(=O)N(c2ccc(N4CCCCC4=O)cc2)CC3)cc1` [Apixaban], for which the fraction is 0.0785 ± 0.087 in assay [1] and 0.9985 ± 0.0026 in assay [2]. Moreover, the “fraction … with nuclear” value with HeLa RPS2-YFP reporter is 0.108 ± 0.08; with HeLa RPL29-GFP reporter, 0.209 ± 0.069.
For `COc1ccc([C@@H]2Sc3ccccc3N(CCN(C)C)C(=O)[C@@H]2OC(C)=O)cc1` [Diltiazem HCl (Tiazac)] the same measures were 0.131 ± 0.2, 0.993 ± 0.013, 0.116 ± 0.055 and 0.225 ± 0.089.
`OC(CCN1CCCCC1)(c1ccccc1)c1ccccc1` [Pridinol Methanesulfonate]: the fraction in assay [1] was 0.23 ± 0.29; in assay [2], 0.9978 ± 0.0039. Further, the “fraction … with nuclear” value in the assay on HeLa RPS2-YFP reporter was found to be 0.187 ± 0.19; with HeLa RPL29-GFP reporter, 0.286 ± 0.24.
`CC(C)Cn1cnc2c(N)nc3ccccc3c21` [Imiquimod]: the fraction in assay [1] amounted to 0.126 ± 0.14; in assay [2] it was 0.9983 ± 0.0029. Further, the results for the “fraction … with nuclear” value in the assay with HeLa RPS2-YFP reporter and with HeLa RPL29-GFP reporter were 0.103 ± 0.071 and 0.222 ± 0.058, respectively.
As for `Cc1ccc(NC(=O)c2ccc(CN3CCN(C)CC3)cc2)cc1Nc1nccc(-c2cccnc2)n1` [Imatinib (Gleevec)], the fraction in assay [1] was found to be 0.0816 ± 0.11; in assay [2] it was 0.9946 ± 0.0094. In addition, the “fraction … with nuclear” value with HeLa RPS2-YFP reporter was 0.0846 ± 0.055; with HeLa RPL29-GFP reporter, 0.236 ± 0.052.
As to `C[C@H]1[C@H](NC(=O)/C(=N\OC(C)(C)C(=O)O)c2csc(N)n2)C(=O)N1S(=O)(=O)O` [Aztreonam (Azactam, Cayston)], the fraction was found to be 0.0864 ± 0.046 in assay [1] and 0.9979 ± 0.0037 in assay [2]. Besides, the “fraction … with nuclear” value in the assay with HeLa RPS2-YFP reporter was 0.102 ± 0.09; with HeLa RPL29-GFP reporter it was 0.217 ± 0.054.
In the case of `C[C@]12CC[C@@H]3c4ccc(O)cc4CC[C@H]3[C@@H]1CCC2=O` [Estrone], the fraction was 0.0414 ± 0.014 in assay [1] and 0.9977 ± 0.004 in assay [2]. For the same compound, the “fraction … with nuclear” value was 0.0946 ± 0.084 with HeLa RPS2-YFP reporter and 0.216 ± 0.039 with HeLa RPL29-GFP reporter.
As to `Cc1cccc(C)c1NC(=O)C1CCCCN1C` (stereo unspecified) [Mepivacaine HCl], the results for the fraction in assay [1] and in assay [2] were 0.105 ± 0.15 and 0.989 ± 0.019, respectively. The figures for the “fraction … with nuclear” value with HeLa RPS2-YFP reporter and with HeLa RPL29-GFP reporter were 0.117 ± 0.092 and 0.206 ± 0.078, respectively.
With `CC(C)(C#N)c1cc(Cn2cncn2)cc(C(C)(C)C#N)c1` [Anastrozole], the fraction worked out at 0.0821 ± 0.057 in assay [1] and 0.9986 ± 0.0025 in assay [2]. The “fraction … with nuclear” value in the assay on HeLa RPS2-YFP reporter came out at 0.117 ± 0.078; with HeLa RPL29-GFP reporter it was 0.196 ± 0.049.
As for `C[C@H]1NC(=O)NC1=O` [Methylhydantoin-5-(D)], the fraction in assay [1] stood at 0.246 ± 0.36; in assay [2], 0.9964 ± 0.0062. Also, the “fraction … with nuclear” value in the assay on HeLa RPS2-YFP reporter was determined as 0.184 ± 0.14; with HeLa RPL29-GFP reporter, 0.289 ± 0.25.
Take `CN(C)CCc1c[nH]c2ccc(CS(=O)(=O)N3CCCC3)cc12` [Almotriptan malate (Axert)]: the fraction in assay [1] amounted to 0.0885 ± 0.13; in assay [2], 0.9975 ± 0.0044. The “fraction … with nuclear” value with HeLa RPS2-YFP reporter worked out at 0.117 ± 0.08; with HeLa RPL29-GFP reporter, 0.234 ± 0.057.
Take `CCCCOc1cc(C(=O)NCCN(CC)CC)c2ccccc2n1` [Dibucaine HCL]: the values for the fraction in assay [1] and in assay [2] were 0.0313 ± 0.03 and 0.988 ± 0.021, respectively. In addition, the “fraction … with nuclear” value in the assay on HeLa RPS2-YFP reporter was determined as 0.0941 ± 0.087; with HeLa RPL29-GFP reporter it was 0.187 ± 0.067.
Regarding `O=c1cc[nH]c(=O)[nH]1` [Uracil], the fraction in assay [1] is 0.0311 ± 0.033; in assay [2] it was 0.988 ± 0.021. Besides, the “fraction … with nuclear” value with HeLa RPS2-YFP reporter is 0.111 ± 0.078; in the assay on HeLa RPL29-GFP reporter, 0.214 ± 0.049.
For `C[C@H]1c2cccc(O)c2C(=O)C2=C(O)[C@]3(O)C(=O)C(C(N)=O)=C(O)[C@@H](N(C)C)[C@@H]3[C@@H](O)[C@@H]21` [Doxycycline HCl], the fraction was determined as 0.0871 ± 0.12 in assay [1] and 0.99 ± 0.017 in assay [2]. In addition, the figures for the “fraction … with nuclear” value in the assay on HeLa RPS2-YFP reporter and in the assay with HeLa RPL29-GFP reporter were 0.139 ± 0.11 and 0.255 ± 0.11, respectively.
For `COC(=O)C1=C(C)NC(C)=C(C(=O)OC2CCCN(Cc3ccccc3)C2)C1c1cccc([N+](=O)[O-])c1` (stereo unspecified) [Benidipine hydrochloride] the same measures were 0.117 ± 0.14, 0.988 ± 0.021, 0.131 ± 0.067 and 0.24 ± 0.12.
Consider `O=C([O-])c1ccccc1O.[Na+]` [Sodium salicylate], for which the fraction amounted to 0.136 ± 0.2 in assay [1] and 0.9948 ± 0.0091 in assay [2]. For the same compound, the results for the “fraction … with nuclear” value with HeLa RPS2-YFP reporter and with HeLa RPL29-GFP reporter were 0.115 ± 0.071 and 0.207 ± 0.076, respectively.
As to `CN1CCCC(n2nc(Cc3ccc(Cl)cc3)c3ccccc3c2=O)CC1` (stereo unspecified) [Azelastine hydrochloride (Astelin)], the fraction in assay [1] turned out to be 0.194 ± 0.28; in assay [2] it was 0.994 ± 0.011. Moreover, the “fraction … with nuclear” value in the assay on HeLa RPS2-YFP reporter worked out at 0.134 ± 0.081; in the assay with HeLa RPL29-GFP reporter it was 0.221 ± 0.064.
